This is an account of results in publication PMC7819943, “Rice protein-binding microarrays: a tool to detect cis-acting elements near promoter regions in rice”.

Amino acid sequences for entries named in this document (tags omitted).
UniProt Q0JBA9, entry or part of it: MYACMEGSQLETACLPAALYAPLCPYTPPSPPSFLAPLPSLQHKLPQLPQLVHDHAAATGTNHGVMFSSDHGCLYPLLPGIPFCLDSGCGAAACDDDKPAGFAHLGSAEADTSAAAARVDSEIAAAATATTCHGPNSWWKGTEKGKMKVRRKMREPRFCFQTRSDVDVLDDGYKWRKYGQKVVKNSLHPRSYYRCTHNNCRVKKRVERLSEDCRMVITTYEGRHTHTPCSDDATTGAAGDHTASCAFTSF

The list shows a part of the results.

The test deals with OsWRKY34 (Oryza sativa, UniProt Q0JBA9 1-250). As to the kind of experiment: protein-binding microarray (RPBM); PBS, 2% BSA, 51.3 ng/ul salmon testes DNA, 50 uM zinc acetate, 200 nM TF, 25 C, 1 h; high values mean tight binding. As to conditions: protein: recombinant; tags: N-terminal polyhistidine and DsRed monomer fusion (pET32a); label: CyDye5-dUTP incorporated in the synthesized complementary strand; 3' TTTTT single-stranded linker to array surface; dsDNA, one strand shown. The method, boiled down:
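A custom Agilent array was converted to double-stranded form by primer extension with Cy5-dUTP and blocked with 2% BSA. Protein at 200 nM in PBS with 2% BSA, salmon testes DNA and 50 µM zinc acetate was applied for 1 h at 25 °C, followed by washing. The proteins were polyhistidine–DsRed N-terminal fusions of transcription factors, expressed in E. coli BL21-CodonPlus and Ni–NTA-purified. The binding signal is per-feature fluorescence intensity (arbitrary units) from an Axon 4000B scanner.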
For “CATCCGTATTTTAATGTATGACACCGTTGACTTTTCGACTCGGAGTCACCTAGTGCAG”, the binding signal is 19100 fluorescence intensity (a.u.).

Turning to “CTTTTTTTTCTTAGTCAATCTTCTTAAGCTCTGACCATGTCGGAGTCACCTAGTGCAG”, the binding signal is 8040 fluorescence intensity (a.u.).

Regarding “CCGAAGCGTCATCGCCGGTGGCCGTATCTTCTGCGTTGACCGGAGTCACCTAGTGCAG”, the binding signal was 15300 fluorescence intensity (a.u.).

Take “AATTCATTTGTCTTGGTACGCTGTTGGGGCGTAATAGGGGCGGAGTCACCTAGTGCAG”: the binding signal was 13200 fluorescence intensity (a.u.).

On to “CTGACAATTTACTAGAGCCATCCTGCTTTGACCATAAATCCGGAGTCACCTAGTGCAG”, for which the binding signal was 11700 fluorescence intensity (a.u.).

For “GTCGCGTCCCTCACTCCTCACTCCACACACCCCGCCACATCGGAGTCACCTAGTGCAG”, the binding signal is 8670 fluorescence intensity (a.u.).

Regarding “ATGCATGCAATGCACCTTGCATTGTTTTGTTTGATCGTTCCGGAGTCACCTAGTGCAG”, the binding signal was 8850 fluorescence intensity (a.u.).

In the case of “GTATCTTCATGCTTTATTATATTGAACGGTTTATAAGGCTCGGAGTCACCTAGTGCAG”, the binding signal was 9060 fluorescence intensity (a.u.).

With “CGGTGGTTTTGATTTCTCCTGATTGCTGAGGCGATTGCCCCGGAGTCACCTAGTGCAG”, the binding signal is 8640 fluorescence intensity (a.u.).

For the sequence “ACAAGTGGGCCTCAATTTTTACTCCACTTTTCCCTTTTCACGGAGTCACCTAGTGCAG”, the binding signal is 9880 fluorescence intensity (a.u.).

With “AGTAAGGTTGGTTTTTCTAGGACGGAGGGAGTAACTTACCCGGAGTCACCTAGTGCAG”, the binding signal is 9500 fluorescence intensity (a.u.).

As for “AATATCATCGTCGTTAGGGTTTCGTCCATCCCACACAGTTCGGAGTCACCTAGTGCAG”, the binding signal is 8200 fluorescence intensity (a.u.).

With “TTCGCGTACTCGATGTCGTCCGCGGCGCGGGGCGAGGGGCCGGAGTCACCTAGTGCAG”, the binding signal was 10600 fluorescence intensity (a.u.).

As to “CTTGCACTGTCCGAGCTTATTTTACCCACACACTTGCCCTCGGAGTCACCTAGTGCAG”, the binding signal is 8290 fluorescence intensity (a.u.).

Turning to “TTTTCAGTTTCATTTCACCTATTTTTACATGTCTATCTTTCGGAGTCACCTAGTGCAG”, the binding signal is 9500 fluorescence intensity (a.u.).

In the case of “GTTATAAGACGTTTTGATTTTAGTCAAAGTCAAACTATTCCGGAGTCACCTAGTGCAG”, the binding signal is 8900 fluorescence intensity (a.u.).

In the case of “TGCTCTACACAAACATTGTTGTTTTTTTTTTCGTAAGGGGCGGAGTCACCTAGTGCAG”, the binding signal was 10500 fluorescence intensity (a.u.).

Consider “CATAAACTTTCAACTTTTCCGTCACATCATTCTAATTTCACGGAGTCACCTAGTGCAG”, for which the binding signal is 8940 fluorescence intensity (a.u.).

For “TGTTGTTATGTTTTTGTCATGATCTCACAAGCAATGTACACGGAGTCACCTAGTGCAG”, the binding signal is 11000 fluorescence intensity (a.u.).

With “GTGCCCACTCCGTTGCTGCCTGCCTGCCTGTCCGTCCTAGCGGAGTCACCTAGTGCAG”, the binding signal was 9080 fluorescence intensity (a.u.).

As for “TCCTCCTTCCACATCTCCGTCTCTCTCTCTCTCATCACGACGGAGTCACCTAGTGCAG”, the binding signal is 12000 fluorescence intensity (a.u.).

As to “CCACAGCTCGCCGCCGTCCATGCTGCAGGTATGTATCATCCGGAGTCACCTAGTGCAG”, the binding signal is 8170 fluorescence intensity (a.u.).

Take “GGCGAACTATGTGATTGTTTTTTTTCTACATTTAATATCTCGGAGTCACCTAGTGCAG”: the binding signal was 12300 fluorescence intensity (a.u.).

On to “TGTATGCGTGTGTGTTGTTATGTACCGTAAGACTGTGTTTCGGAGTCACCTAGTGCAG”, for which the binding signal is 9780 fluorescence intensity (a.u.).

For “CACTCATTCACTCGCTCACTCGGATCCCATTCAATCATTCCGGAGTCACCTAGTGCAG”, the binding signal is 9340 fluorescence intensity (a.u.).

On to “GGTTGGGGAAATTTTAGGAAATGGGCCGAGATGGTACTGTCGGAGTCACCTAGTGCAG”, for which the binding signal is 8140 fluorescence intensity (a.u.).

Turning to “GCCTGCGTTTTTTTTATCCTTTCTGCTTGCACGAATCTCGCGGAGTCACCTAGTGCAG”, the binding signal was 8070 fluorescence intensity (a.u.).

On to “CGCCCACCCGCCCGCCGCTTTGCGTGTGCGCACAACACAGCGGAGTCACCTAGTGCAG”, for which the binding signal was 8370 fluorescence intensity (a.u.).

Regarding “ACCGGACAACCAAACATCCACCTCGTTTCAGCTTTTCTTACGGAGTCACCTAGTGCAG”, the binding signal is 8290 fluorescence intensity (a.u.).

On to “ACAACACTAACAACATCTCCACTGCACCCATCTCTCTTGCCGGAGTCACCTAGTGCAG”, for which the binding signal was 8290 fluorescence intensity (a.u.).

With “TCGCTATGTTTGCTGCACTCGAGGATGAACGCGCGATTCACGGAGTCACCTAGTGCAG”, the binding signal is 10200 fluorescence intensity (a.u.).

On to “GGCGGCGGCGGCGGCGTGGAGGGGAATGGGGAGAGAGTGGCGGAGTCACCTAGTGCAG”, for which the binding signal was 9120 fluorescence intensity (a.u.).

On to “CCGTTTTGCTCTCAAATTTGAATAAATATTACTCTTTTTTCGGAGTCACCTAGTGCAG”, for which the binding signal was 9520 fluorescence intensity (a.u.).

With “TTTCTCTTGATTGCACCTGCATTTTCTTGGGGTCGTTTATCGGAGTCACCTAGTGCAG”, the binding signal is 8600 fluorescence intensity (a.u.).

In the case of “ATTTATTTTTTACCCTTATATCTATTTCCAACGGCTTTTACGGAGTCACCTAGTGCAG”, the binding signal was 8090 fluorescence intensity (a.u.).

As to “TAAGGCATCAACACGTTTGGCAGCTACCTTCCTTATTTATCGGAGTCACCTAGTGCAG”, the binding signal is 8790 fluorescence intensity (a.u.).

Take “GCCCGACTGCTTCTTGCGCTTCCCGCCGTCGGCCAGCAGGCGGAGTCACCTAGTGCAG”: the binding signal is 8650 fluorescence intensity (a.u.).

Take “TATGGTCTTCTCCTATGTATCGTTCTGCTGATTTTTTTTACGGAGTCACCTAGTGCAG”: the binding signal was 9360 fluorescence intensity (a.u.).

On to “CTTGTTGCTTCACTCAAAGTGAGTGTTCTTGTCAGTTGTCCGGAGTCACCTAGTGCAG”, for which the binding signal was 9080 fluorescence intensity (a.u.).

Regarding “ACAGGTGTTGGTTAGTTGTGTTTCGTTTGCTTAGAAGTAACGGAGTCACCTAGTGCAG”, the binding signal was 8180 fluorescence intensity (a.u.).

Take “GCCTCGAGGGATGAAATTCCACATCCCTATATTCACATGTCGGAGTCACCTAGTGCAG”: the binding signal is 8810 fluorescence intensity (a.u.).

Take “CCATCCATCCACCATCTTGCATGCTAGCTAGCTACCCTGCCGGAGTCACCTAGTGCAG”: the binding signal was 11100 fluorescence intensity (a.u.).
